Laboratory results from PMC5217004.
These are yes or no findings as the source states them, for the method shown. In cells and extracts the contact can be indirect. Some results given as binding are weak or reduced against the parent protein; the word gives no strength.

Chains of the proteins cited; added tags and fusions are not shown.
UniProt P45973: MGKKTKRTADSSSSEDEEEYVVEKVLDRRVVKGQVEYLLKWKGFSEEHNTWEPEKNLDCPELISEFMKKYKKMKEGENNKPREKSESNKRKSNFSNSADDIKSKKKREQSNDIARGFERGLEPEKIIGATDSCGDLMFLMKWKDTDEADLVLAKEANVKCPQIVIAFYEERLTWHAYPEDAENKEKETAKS

Molecular target: Heterochromatin protein 1α (human (endogenous in Hucct1)) (UniProt P45973)
Assay: co-IP; 200 μg Hucct1 protein extract with 2.5 μg anti-HP1α antibodies on 20 μl Protein A + G Agarose beads, rotation overnight at 4°C; Western blot of the precipitate; goat normal IgG as control

B1: SUV39H1 (enzyme, UniProt O43463 1-412)
chain: MAENLKGCSVCCKSSWNQLQDLCRLAKLSCPALGISKRNLYDFEVEYLCDYKKIREQEYYLVKWRGYPDSESTWEPRQNLKCVRILKQFHKDLERELLRRHHRSKTPRHLDPSLANYLVQKAKQRRALRRWEQELNAKRSHLGRITVENEVDLDGPPRAFVYINEYRVGEGITLNQVAVGCECQDCLWAPTGGCCPGASLHKFAYNDQGQVRLRAGLPIYECNSRCRCGYDCPNRVVQKGIRYDLCIFRTDDGRGWGVRTLEKIRKNSFVMEYVGEIITSEEAERRGQIYDRQGATYLFDLDYVEDVYTVDAAYYGNISHFVNHSCDPNLQVYNVFIDNLDERLPRIAFFATRTIRAGEELTFDYNMQVDPVDMESTRMDSNFGLAGLPGSPKKRVRIECKCGTESCRKYLF
  binding: binds
